Article PMC8641933
Results are given in words; binding and its absence hold for the method and conditions named. In cells and extracts the contact can be indirect. Some binding calls cover weakened binding; strength is not graded here. Where a sequence is shown, tags or fusion partners need not be part of it.

Target: wild-type FOXN1 (human), FLAG- or myc-tagged (human) (UniProt O15353)
Test: co-IP; Lysates of cotransfected 4D6 cells incubated with anti-FLAG or anti-Myc antibodies and protein G or A magnetic beads, 2 hours at 4°C. Western blot for the other tag. With or without coexpressed unlabeled Δ550 FOXN1.

B1: wild-type FOXN1 (human), FLAG- or myc-tagged (protein, UniProt O15353 1-648)
chain: MVSLPPPQSDVTLPGPTRLEGERQGDLMQAPGLPGSPAPQSKHAGFSCSSFVSDGPPERTPSLPPHSPRIASPGPEQVQGHCPAGPGPGPFRLSPSDKYPGFGFEEAAASSPGRFLKGSHAPFHPYKRPFHEDVFPEAETTLALKGHSFKTPGPLEAFEEIPVDVAEAEAFLPGFSAEAWCNGLPYPSQEHGPQVLGSEVKVKPPVLESGAGMFCYQPPLQHMYCSSQPPFHQYSPGGGSYPIPYLGSSHYQYQRMAPQASTDGHQPLFPKPIYSYSILIFMALKNSKTGSLPVSEIYNFMTEHFPYFKTAPDGWKNSVRHNLSLNKCFEKVENKSGSSSRKGCLWALNPAKIDKMQEELQKWKRKDPIAVRKSMAKPEELDSLIGDKREKLGSPLLGCPPPGLSGSGPIRPLAPPAGLSPPLHSLHPAPGPIPGKNPLQDLLMGHTPSCYGQTYLHLSPGLAPPGPPQPLFPQPDGHLELRAQPGTPQDSPLPAHTPPSHSAKLLAEPSPARTMHDTLLPDGDLGTDLDAINPSLTDFDFQGNLWEQLKDDSLALDPLVLVTSSPTSSSMPPPQPPPHCFPPGPCLTETGSGAGDLAAPGSGGSGALGDLHLTTLYSAFMELEPTPPTAPAGPSVYLSPSSKPVALA
B1 was tested, and the binding was “binds”.
